Reference: the supplement of paper PMC11542785
Structures can show the parent of a compound that is named as a salt. The list shows a part of the results. Single values are uncertain, as repeats are few or missing.

Tested on: Drosophila melanogaster DPAGT1 (Alg7) RNAi eye model
Experiment: eye size Z-score vs DMSO-treated DPAGT1 model flies; higher = larger eye (suppression of DPAGT1 phenotype)
Conditions: 5 uM

Structure (SMILES)	eye size Z-score	eye size Z-score (female)
CCOC(=O)C(C)(N)Cc1cc(I)c(Oc2cc(I)c(O)c(I)c2)c(I)c1 (centres undefined) [Etiroxate hydrochloride]	-1.03	–
C[C@]12CC[C@@H]3c4ccc(O)cc4CC[C@H]3[C@@H]1CC[C@@H]2O [Estradiol-17 beta]	-0.84	–
CCCN(CCC)S(=O)(=O)c1ccc(C(=O)O)cc1 [Probenecid]	1.2	–
CCN(CC)C(=O)c1cccnc1 [Nikethamide]	0.97	–
COc1ccc2[nH]c([S+]([O-])Cc3ncc(C)c(OC)c3C)nc2n1 (centres undefined) [Tenatoprazole]	-1.68	–
CN(C)CCOC(c1ccccc1)c1ccccc1 [Diphenhydramine hydrochloride]	-0.16	–
CC(=O)[C@H]1CC[C@H]2[C@@H]3CCC4=CC(=O)CC[C@]4(C)[C@H]3CC[C@]12C [Progesterone]	-0.05	–
CN(C)CC/C=C1/c2ccccc2Sc2ccc(Cl)cc21 [Chlorprothixene hydrochloride]	-0.59	–
N[C@@H](Cc1cc(I)c(Oc2cc(I)c(O)c(I)c2)c(I)c1)C(=O)O [(L) Thyroxine]	-0.05	–
N=C(N)NC(=O)Cc1c(Cl)cccc1Cl [Guanfacine hydrochloride]	1.3	–
O=C(O)Cc1ccccc1Oc1ccc(Cl)cc1Cl [Fenclofenac]	0.29	–
Nc1cccc2c1C(=O)N(C1CCC(=O)NC1=O)C2=O (centres undefined) [Pomalidomide]	-0.55	–
CN1C(=O)CC(c2ccccc2)C1=O (centres undefined) [Phensuximide]	-0.36	–
CC1CNc2c(cccc2S(=O)(=O)N[C@@H](CCCNC(=N)N)C(=O)N2CC[C@@H](C)C[C@@H]2C(=O)O)C1 (some centres undefined) [Argatroban]	-0.68	–
CN(C)CCN(Cc1ccccc1)c1ccccn1 [Tripelennamine hydrochloride]	0.57	–
CC(=O)O[C@@]12CO[C@@H]1C[C@H](O)[C@@]1(C)C(=O)[C@H](O)C3=C(C)[C@@H](OC(=O)[C@H](O)[C@@H](NC(=O)OC(C)(C)C)c4ccccc4)C[C@@](O)([C@@H](OC(=O)c4ccccc4)[C@H]21)C3(C)C [Docetaxel]	-0.69	–
Clc1ccc(CSC(Cn2ccnc2)c2ccc(Cl)cc2Cl)cc1 (centres undefined) [Sulconazole nitrate]	-0.13	–
C#C[C@]1(OC(C)=O)CC[C@H]2[C@@H]3CCC4=CC(=NO)CC[C@@H]4[C@H]3CC[C@@]21CC (mixture of isomers) [Norgestimate]	0.88	–
CCCc1c2oc(C(=O)O)cc(=O)c2cc2c(=O)cc(C(=O)O)n(CC)c12 [Nedocromil sodium]	0.54	–
CC(=O)Oc1ccc(C(=C2CCCCC2)c2ccc(OC(C)=O)cc2)cc1 [Cyclofenil]	-0.22	–
CC(=O)O[C@]1(C(C)=O)CC[C@H]2[C@@H]3C=C(Cl)C4=CC(=O)[C@@H]5C[C@@H]5[C@]4(C)[C@H]3CC[C@@]21C [Cyproterone acetate]	0.06	–
Clc1ccc(CO/N=C(\Cn2ccnc2)c2ccc(Cl)cc2Cl)c(Cl)c1 [Oxiconazole nitrate]	0.31	–
CCCSc1nc(N[C@@H]2C[C@H]2c2ccc(F)c(F)c2)c2nnn([C@@H]3C[C@H](OCCO)[C@@H](O)[C@H]3O)c2n1 [Ticagrelor]	0.52	–
CC(=O)OC[C@H]1O[C@@H](n2ncc(=O)[nH]c2=O)[C@H](OC(C)=O)[C@@H]1OC(C)=O [Azaribine]	0.41	–
O=C(O)COCCN1CCN(C(c2ccccc2)c2ccc(Cl)cc2)CC1 (centres undefined) [Cetirizine dihydrochloride]	0.34	–

Structure (SMILES)	eye size Z-score	eye size Z-score (female)
N[C@@H]1CONC1=O [D-cycloserine]	2.85	–
N=C(N)Nc1ccc(C(=O)Oc2ccc3cc(C(=N)N)ccc3c2)cc1 [Nafamostat Mesylate]	0.37	–
Clc1ccc(Cn2c(CN3CCCC3)nc3ccccc32)cc1 [Clemizole hydrochloride]	0.32	–
COc1cc2nc(N(C)CCCNC(=O)C3CCCO3)nc(N)c2cc1OC (centres undefined) [Alfuzosin hydrochloride]	0.07	–
CC(=O)Oc1ccccc1C(=O)O [Acetylsalicylic acid]	-0.37	–
N=C(N)NS(=O)(=O)c1ccc(N)cc1 [Sulfaguanidine]	1.44	–
CC1=C(/C=C/C(C)=C/C=C/C(C)=C/C(=O)O)C(C)(C)CCC1 [Retinoic acid]	0.12	–
NC(=O)c1cc[n+](CC2=C(C(=O)[O-])N3C(=O)[C@@H](NC(=O)[C@@H](c4ccccc4)S(=O)(=O)O)[C@H]3SC2)cc1 [Cefsulodin sodium salt]	-0.19	–
CCc1c(C)[nH]c2c1C(=O)C(CN1CCOCC1)CC2 (centres undefined) [Molindone hydrochloride]	0.63	–
CC1=C(C(=O)O)N2C(=O)[C@@H](NC(=O)[C@H](N)C3=CCC=CC3)[C@H]2SC1 [Cephradine monohydrate]	0.21	–
N[C@@H](CCC(=O)N[C@@H](CS)C(=O)NCC(=O)O)C(=O)O [Glutathione]	-0.52	–
CCC1(c2ccccc2)NC(=O)N(C)C1=O (centres undefined) [Mephenytoin]	-1.17	–
CC1(C)[C@H](C(=O)O)N2C(=O)C[C@H]2S1(=O)=O [Sulbactam]	-0.17	–
Cc1ncc(CO)c(CO)c1O [Pyridoxine hydrochloride]	-0.13	–
Cc1cc(C(C)(C)C)c(O)c(C)c1CC1=NCCN1 [Oxymetazoline hydrochloride]	0.29	–
CN(C)CCCN1c2ccccc2Sc2ccccc21 [Promazine hydrochloride]	0.06	–
NS(=O)(=O)c1cc(C(=O)O)cc(N2CCCC2)c1Oc1ccccc1 [Piretanide]	0.4	–
COc1ccc([C@@H]2CC(=O)c3c(O)cc(O[C@@H]4O[C@H](CO[C@@H]5O[C@@H](C)[C@H](O)[C@@H](O)[C@H]5O)[C@@H](O)[C@H](O)[C@H]4O)cc3O2)cc1O [Hesperidin]	0.41	–
CC(C)(C(=O)O)c1ccc(C(O)CCCN2CCC(C(O)(c3ccccc3)c3ccccc3)CC2)cc1 (centres undefined) [Fexofenadine hydrochloride]	-0.4	–
Cc1c(C)c2c(c(C)c1O)CCC(C)(COc1ccc(CC3SC(=O)NC3=O)cc1)O2 (centres undefined) [Troglitazone]	-1.03	–
COC(c1ccccc1)(c1ccccc1)[C@H](Oc1nc(C)cc(C)n1)C(=O)O [Ambrisentan]	0.01	–
COC(=O)C1=C(C)NC(C)=C(C(=O)OCCN2CCN(C(c3ccccc3)c3ccccc3)CC2)C1c1cccc([N+](=O)[O-])c1 (centres undefined) [Manidipine Dihydrochloride]	0.46	–
CC(=O)Nc1ccccc1 [Acetanilide]	-0.93	–
CC(C(=O)O)c1ccc2c(c1)Cc1cccnc1O2 (centres undefined) [Pranoprofen]	0.77	–
COC(=O)Nc1nc2cc(C(=O)c3ccccc3)ccc2[nH]1 [Mebendazole]	-0.07	–

In a second layout: four of the compounds above.
COc1ccc([C@@H]2CC(=O)c3c(O)cc(O[C@@H]4O[C@H](CO[C@@H]5O[C@@H](C)[C@H](O)[C@@H](O)[C@H]5O)[C@@H](O)[C@H](O)[C@H]4O)cc3O2)cc1O [Hesperidin]
  eye size Z-score: 0.41
CC(C)(C(=O)O)c1ccc(C(O)CCCN2CCC(C(O)(c3ccccc3)c3ccccc3)CC2)cc1 (centres undefined) [Fexofenadine hydrochloride]
  eye size Z-score: -0.4
Cc1c(C)c2c(c(C)c1O)CCC(C)(COc1ccc(CC3SC(=O)NC3=O)cc1)O2 (centres undefined) [Troglitazone]
  eye size Z-score: -1.03
COC(c1ccccc1)(c1ccccc1)[C@H](Oc1nc(C)cc(C)n1)C(=O)O [Ambrisentan]
  eye size Z-score: 0.01

Next part

Structure (SMILES)	eye size Z-score	eye size Z-score (female)
CC(C)c1ccc2oc3nc(N)c(C(=O)O)cc3c(=O)c2c1 [Amlexanox]	1.08	–
CC1(C)S[C@@H]2[C@H](NC(=O)[C@H](NC(=O)N3CCNC3=O)c3ccccc3)C(=O)N2[C@H]1C(=O)O [Azlocillin sodium salt]	0.58	–
Cc1cc2c(cc1S(N)(=O)=O)S(=O)(=O)CCC2 [Meticrane]	0.82	–
NCCNCCNCCNCCN [Tetraethylenepentamine pentahydrochloride]	0.64	–
Cc1onc(-c2c(Cl)cccc2Cl)c1C(=O)N[C@@H]1C(=O)N2[C@@H]1SC(C)(C)[C@@H]2C(=O)O [Dicloxacillin sodium salt hydrate]	0.06	–
CN(C)/N=N/c1[nH]cnc1C(N)=O [Dacarbazine]	-0.03	–
CC[N+](C)(C)Cc1ccccc1Br [Bretylium tosylate]	-1.11	–
C[N+](C)(C)CCCCCC[N+](C)(C)C [Hexamethonium dibromide dihydrate]	–	-0.57
CC1CC(OC(=O)C(O)c2ccccc2)CC(C)(C)C1 (centres undefined) [Cyclandelate]	-0.59	–
O=C(O)c1cccnc1Nc1cccc(C(F)(F)F)c1 [Niflumic acid]	0.04	–
CCOC(=O)c1c(N)sc2c1CCN(Cc1ccccc1)C2 [Tinoridine hydrochloride]	0.44	–
Cc1oncc1C(=O)Nc1ccc(C(F)(F)F)cc1 [Leflunomide]	0.05	–
COc1ccc(C(Cl)=C(c2ccc(OC)cc2)c2ccc(OC)cc2)cc1 [Chlorotrianisene]	0.71	–
CCOC(=O)[C@H](CCc1ccccc1)N[C@@H](C)C(=O)N1Cc2ccccc2C[C@H]1C(=O)O [Quinapril hydrochloride]	–	0.35
CC(CCc1ccccc1)NCC(O)c1ccc(O)c(C(N)=O)c1 (centres undefined) [Labetalol hydrochloride]	-1.89	–
Fc1ccc(C(c2ccc(F)cc2)N2CCN(C/C=C/c3ccccc3)CC2)cc1 [Flunarizine dihydrochloride]	0.39	–
Cc1ccc(Nc2c(F)cccc2Cl)c(CC(=O)O)c1 [Lumiracoxib]	0.14	–
CC(C)(CO)[C@@H](O)C(=O)NCCCC(=O)O [Hopantenate calcium]	-0.16	–
NC(N)=Nc1nc(CSCCN/C=N/S(=O)(=O)c2ccc(Br)cc2)cs1 [Ebrotidine]	0.3	–
CCCCC(=O)O[C@H]1CC[C@H]2[C@@H]3CCc4cc(O)ccc4[C@H]3CC[C@]12C [Estradiol Valerate]	-0.07	–
N=C(N)c1ccc(OCCCCCOc2ccc(C(=N)N)cc2)cc1 [Pentamidine isethionate]	-0.48	–
Cn1c(NCCN(CCO)CCCc2ccc([N+](=O)[O-])cc2)cc(=O)n(C)c1=O [Nifekalant]	-0.84	–
OCCOCCN1CCN(C2=Nc3ccccc3Sc3ccccc32)CC1 [Quetiapine hemifumarate]	-0.1	–
COc1cccc2c1C(=O)c1c(O)c3c(c(O)c1C2=O)C[C@@](O)(C(=O)CO)C[C@@H]3O[C@H]1C[C@H](N)[C@H](O)[C@H](C)O1 [Doxorubicin hydrochloride]	-0.33	–
